Cell number after 72 h of treatment

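The test systems are human melanoma cell lines, treated with two drugs together for 72 h and then stained and imaged. Each value is the count of nuclei relative to DMSO-treated wells, in %, so that 100 equals the control. Every drug was used at one fixed concentration, the lower of two screened (a fifth of the higher). No replicate spread is given; individual values may be noisy.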 This is part of the screen, not chosen by result. A dash means that no value is listed here.

All values are for the listed drug together with everolimus (0.02 µM): CO[C@H]1C[C@@H]2CC[C@@H](C)[C@@](O)(O2)C(=O)C(=O)N2CCCC[C@H]2C(=O)O[C@H]([C@H](C)C[C@@H]2CC[C@@H](OCCO)[C@H](OC)C2)CC(=O)[C@H](C)/C=C(\C)[C@@H](O)[C@@H](OC)C(=O)[C@H](C)C[C@H](C)/C=C/C=C/C=C/1C

Compounds and concentrations:
docetaxel, 0.0001 µM: CC(=O)O[C@@]12CO[C@@H]1C[C@H](O)[C@@]1(C)C(=O)[C@H](O)C3=C(C)[C@@H](OC(=O)[C@H](O)[C@@H](NC(=O)OC(C)(C)C)c4ccccc4)C[C@@](O)([C@@H](OC(=O)c4ccccc4)[C@H]21)C3(C)C
sunitinib, 0.4 µM: CCN(CC)CCNC(=O)c1c(C)[nH]c(/C=C2\C(=O)Nc3ccc(F)cc32)c1C
L-779450, 0.2 µM: Oc1cc(-c2nc(-c3ccccc3)[nH]c2-c2ccncc2)ccc1Cl
tamatinib, 0.4 µM: COc1cc(Nc2ncc(F)c(Nc3ccc4c(n3)NC(=O)C(C)(C)O4)n2)cc(OC)c1OC
JZL184, 1 µM: O=C(Oc1ccc([N+](=O)[O-])cc1)N1CCC(C(O)(c2ccc3c(c2)OCO3)c2ccc3c(c2)OCO3)CC1

| Cell line | JZL184 | sunitinib | tamatinib | L-779450 | docetaxel |
|---|---|---|---|---|---|
| A375 | - | 44.9 | 67.5 | - | 15.8 |
| A101D | 85.0 | 74.2 | 85.9 | 65.3 | 64.0 |
| IST-MEL1 | 86.3 | 87.6 | 87.1 | 95.2 | 61.0 |
| G-361 | 67.8 | 68.4 | 61.7 | 66.1 | 20.4 |
| COLO 792 | 58.7 | 41.5 | 28.2 | 64.5 | 24.8 |
| LB2518-MEL | - | 80.4 | 65.5 | 64.8 | 65.7 |
| C32 | 82.6 | 74.1 | 95.5 | 83.6 | 69.7 |
| A2058 | 74.5 | 60.0 | 68.0 | 61.8 | 9.0 |
| 501mel | - | - | - | 52.2 | - |
| COLO 829 | 38.4 | 89.9 | 73.8 | 90.6 | 58.4 |
| IPC-298 | 72.6 | 69.2 | 57.1 | 56.4 | 60.1 |
| COLO 800 | 64.0 | 39.1 | 71.4 | 64.2 | 22.7 |
| MEL-HO | 62.8 | 60.2 | 67.1 | 59.8 | 44.3 |
| LOX IMVI | 96.2 | 80.2 | 53.1 | 106 | 38.4 |

Values as published with doi:10.1371/journal.pone.0140310, rounded.